These are yes or no findings as the source states them, for the method shown. In cells and extracts the contact can be indirect. A yes stands for co-enrichment or nearness to the bait. Other partners may have been found. For some of these results: No binding means not detected with the bait.
What was measured:
[1] = target: Anqa1-FZZ (TTHERM_00766460) (Tetrahymena thermophila) (UniProt I7MML9); assay: affinity purification with mass spectrometry; conjugating Tetrahymena harvested 5 hours post mixing; FZZ-tagged bait; whole cell extract in 10 mM Tris-HCl pH 7.5, 1 mM MgCl2, 300 mM NaCl, 0.2% NP40, Benzonase; M2-agarose at 4°C; SAINTexpress, FDR ≤ 0.01 (Aip1: FDR ≤ 0.03)
[2] = target: Anqa1-FZZ (TTHERM_00766460) (Tetrahymena thermophila) (UniProt I7MML9); assay: affinity purification with mass spectrometry; vegetatively growing Tetrahymena; FZZ-tagged bait from its endogenous MAC locus; whole cell extract in 10 mM Tris-HCl pH 7.5, 1 mM MgCl2, 300 mM NaCl, 0.2% NP40, Benzonase; M2-agarose at 4°C; SAINTexpress, FDR ≤ 0.01, against untagged cells
[3] = target: Lin9^Tt-FZZ (Tetrahymena thermophila) (UniProt I7MKQ3); assay: as above
[4] = target: EGFP-tagged RBBP4 (human) (UniProt Q09028); assay: affinity purification with mass spectrometry; HEK293 (Flp-In T-REx) cells expressing GFP-tagged bait, 24 h doxycycline; lysis in 10 mM Tris-HCl pH 8.0, 420 mM NaCl, 0.1% NP-40, sonicated, Benzonase; anti-GFP antibody and Protein G Dynabeads; SAINTexpress, FDR ≤ 0.01, against GFP alone
[5] = target: EGFP-tagged RBBP7 (human) (UniProt Q16576); assay: as above
[6] = target: RebL1-FZZ (Tetrahymena thermophila) (UniProt I7MMT8); assay: affinity purification with mass spectrometry; conjugating Tetrahymena harvested 5 hours post mixing; FZZ-tagged bait; whole cell extract in 10 mM Tris-HCl pH 7.5, 1 mM MgCl2, 300 mM NaCl, 0.2% NP40, Benzonase; M2-agarose at 4°C; SAINTexpress, FDR ≤ 0.01 (Aip1: FDR ≤ 0.03)
[7] = target: RebL1-FZZ (Tetrahymena thermophila) (UniProt I7MMT8); assay: affinity purification with mass spectrometry; vegetatively growing Tetrahymena; FZZ-tagged bait from its endogenous MAC locus; whole cell extract in 10 mM Tris-HCl pH 7.5, 1 mM MgCl2, 300 mM NaCl, 0.2% NP40, Benzonase; M2-agarose at 4°C; SAINTexpress, FDR ≤ 0.01, against untagged cells

Chains of the proteins cited; added tags and fusions are not shown. Lines headed by an entry give the natural chain unless they say otherwise; changes in a name come on top.
UniProt I7MML9: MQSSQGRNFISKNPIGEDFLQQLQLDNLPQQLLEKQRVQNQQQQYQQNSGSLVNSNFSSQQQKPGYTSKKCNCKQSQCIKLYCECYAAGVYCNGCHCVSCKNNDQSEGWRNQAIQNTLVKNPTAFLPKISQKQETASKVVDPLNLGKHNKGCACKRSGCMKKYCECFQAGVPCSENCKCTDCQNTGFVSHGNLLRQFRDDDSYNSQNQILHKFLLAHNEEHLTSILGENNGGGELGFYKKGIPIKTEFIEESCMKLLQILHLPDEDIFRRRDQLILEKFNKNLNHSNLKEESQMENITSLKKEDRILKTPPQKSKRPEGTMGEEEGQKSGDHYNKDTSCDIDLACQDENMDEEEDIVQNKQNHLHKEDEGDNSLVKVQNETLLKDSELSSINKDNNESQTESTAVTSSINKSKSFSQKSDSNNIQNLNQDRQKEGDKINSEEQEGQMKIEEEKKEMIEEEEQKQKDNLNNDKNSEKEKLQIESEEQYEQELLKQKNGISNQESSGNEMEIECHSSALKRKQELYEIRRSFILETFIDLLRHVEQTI
UniProt I7MKQ3: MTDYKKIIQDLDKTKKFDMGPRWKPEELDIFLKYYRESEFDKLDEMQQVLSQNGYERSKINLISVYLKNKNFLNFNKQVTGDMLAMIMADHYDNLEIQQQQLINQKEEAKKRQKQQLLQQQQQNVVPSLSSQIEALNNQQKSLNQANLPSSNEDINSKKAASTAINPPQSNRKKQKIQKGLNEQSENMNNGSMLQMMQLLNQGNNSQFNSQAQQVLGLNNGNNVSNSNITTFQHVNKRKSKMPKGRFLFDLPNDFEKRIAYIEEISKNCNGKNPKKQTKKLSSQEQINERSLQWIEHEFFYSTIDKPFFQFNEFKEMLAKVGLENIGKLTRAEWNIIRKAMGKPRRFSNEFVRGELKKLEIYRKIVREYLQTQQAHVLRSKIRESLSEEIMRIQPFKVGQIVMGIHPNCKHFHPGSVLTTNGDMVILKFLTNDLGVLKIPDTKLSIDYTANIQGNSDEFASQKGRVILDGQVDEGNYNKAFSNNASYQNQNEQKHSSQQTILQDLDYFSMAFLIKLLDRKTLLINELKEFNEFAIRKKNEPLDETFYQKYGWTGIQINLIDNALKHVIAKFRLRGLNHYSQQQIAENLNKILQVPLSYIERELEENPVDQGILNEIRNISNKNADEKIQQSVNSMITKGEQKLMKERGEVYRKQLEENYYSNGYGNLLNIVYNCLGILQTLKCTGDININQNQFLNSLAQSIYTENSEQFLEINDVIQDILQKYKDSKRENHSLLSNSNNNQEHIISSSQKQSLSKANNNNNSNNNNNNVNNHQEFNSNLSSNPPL
UniProt Q09028: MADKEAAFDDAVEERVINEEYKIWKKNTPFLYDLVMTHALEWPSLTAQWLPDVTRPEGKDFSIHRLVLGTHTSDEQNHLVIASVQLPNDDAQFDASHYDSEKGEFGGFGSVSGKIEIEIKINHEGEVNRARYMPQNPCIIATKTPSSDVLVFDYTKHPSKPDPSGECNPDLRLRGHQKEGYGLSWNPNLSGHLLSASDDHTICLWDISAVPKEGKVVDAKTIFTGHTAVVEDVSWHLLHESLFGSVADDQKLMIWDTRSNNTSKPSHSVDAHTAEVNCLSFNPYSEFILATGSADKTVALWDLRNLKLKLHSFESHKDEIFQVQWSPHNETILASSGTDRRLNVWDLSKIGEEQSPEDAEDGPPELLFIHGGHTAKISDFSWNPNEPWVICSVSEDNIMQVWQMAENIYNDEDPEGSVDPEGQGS
UniProt I7MMT8: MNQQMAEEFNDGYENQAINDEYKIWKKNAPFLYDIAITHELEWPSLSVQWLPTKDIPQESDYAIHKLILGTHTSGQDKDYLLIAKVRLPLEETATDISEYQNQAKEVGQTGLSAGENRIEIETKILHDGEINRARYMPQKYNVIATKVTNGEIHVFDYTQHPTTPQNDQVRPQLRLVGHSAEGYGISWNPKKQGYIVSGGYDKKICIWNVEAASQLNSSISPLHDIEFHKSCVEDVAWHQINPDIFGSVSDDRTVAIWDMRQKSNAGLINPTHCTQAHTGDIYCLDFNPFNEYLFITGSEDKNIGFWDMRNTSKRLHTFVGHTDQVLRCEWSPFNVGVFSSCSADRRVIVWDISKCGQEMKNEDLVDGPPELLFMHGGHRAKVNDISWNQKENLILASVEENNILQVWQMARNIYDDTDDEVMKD
UniProt Q22W41: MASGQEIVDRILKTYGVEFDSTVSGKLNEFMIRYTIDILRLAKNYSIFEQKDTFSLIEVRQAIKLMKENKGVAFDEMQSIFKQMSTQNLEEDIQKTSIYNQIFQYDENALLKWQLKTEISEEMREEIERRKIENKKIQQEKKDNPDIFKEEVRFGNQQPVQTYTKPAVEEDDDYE
UniProt O14929: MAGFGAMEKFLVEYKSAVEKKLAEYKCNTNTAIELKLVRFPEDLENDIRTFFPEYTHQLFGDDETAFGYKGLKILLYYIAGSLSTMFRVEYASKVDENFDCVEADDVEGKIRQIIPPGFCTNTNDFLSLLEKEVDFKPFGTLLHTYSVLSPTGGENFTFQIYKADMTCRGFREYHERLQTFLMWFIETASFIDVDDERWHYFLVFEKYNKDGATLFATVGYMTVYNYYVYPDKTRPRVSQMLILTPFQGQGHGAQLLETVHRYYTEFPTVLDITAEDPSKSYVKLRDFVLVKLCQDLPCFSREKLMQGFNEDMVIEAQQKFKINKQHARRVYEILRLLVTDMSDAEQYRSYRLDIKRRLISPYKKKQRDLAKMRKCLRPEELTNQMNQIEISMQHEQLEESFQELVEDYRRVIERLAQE
UniProt I7MAZ7: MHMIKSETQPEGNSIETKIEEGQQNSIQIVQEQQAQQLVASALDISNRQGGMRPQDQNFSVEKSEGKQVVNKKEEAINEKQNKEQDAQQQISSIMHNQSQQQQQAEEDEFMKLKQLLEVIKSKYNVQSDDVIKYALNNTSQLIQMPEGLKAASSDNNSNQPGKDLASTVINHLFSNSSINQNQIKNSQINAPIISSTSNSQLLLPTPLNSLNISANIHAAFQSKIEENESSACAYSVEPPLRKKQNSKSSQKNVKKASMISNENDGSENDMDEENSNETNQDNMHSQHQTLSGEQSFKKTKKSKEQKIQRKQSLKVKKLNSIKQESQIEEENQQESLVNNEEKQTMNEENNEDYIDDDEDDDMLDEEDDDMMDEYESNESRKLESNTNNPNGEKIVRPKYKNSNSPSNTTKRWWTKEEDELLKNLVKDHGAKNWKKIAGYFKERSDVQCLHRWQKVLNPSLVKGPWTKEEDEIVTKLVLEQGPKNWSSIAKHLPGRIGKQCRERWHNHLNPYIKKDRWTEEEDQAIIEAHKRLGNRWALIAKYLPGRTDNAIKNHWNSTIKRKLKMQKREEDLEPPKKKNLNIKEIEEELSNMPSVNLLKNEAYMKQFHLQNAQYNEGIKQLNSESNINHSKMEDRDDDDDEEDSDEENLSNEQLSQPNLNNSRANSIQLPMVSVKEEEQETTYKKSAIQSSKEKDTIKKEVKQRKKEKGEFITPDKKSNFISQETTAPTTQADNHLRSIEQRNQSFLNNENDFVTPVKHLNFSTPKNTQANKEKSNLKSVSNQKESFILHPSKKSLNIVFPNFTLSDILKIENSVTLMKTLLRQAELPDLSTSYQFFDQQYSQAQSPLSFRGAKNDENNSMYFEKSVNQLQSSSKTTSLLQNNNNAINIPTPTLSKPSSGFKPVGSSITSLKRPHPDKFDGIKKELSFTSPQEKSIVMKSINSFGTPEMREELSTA
UniProt I7M4G6: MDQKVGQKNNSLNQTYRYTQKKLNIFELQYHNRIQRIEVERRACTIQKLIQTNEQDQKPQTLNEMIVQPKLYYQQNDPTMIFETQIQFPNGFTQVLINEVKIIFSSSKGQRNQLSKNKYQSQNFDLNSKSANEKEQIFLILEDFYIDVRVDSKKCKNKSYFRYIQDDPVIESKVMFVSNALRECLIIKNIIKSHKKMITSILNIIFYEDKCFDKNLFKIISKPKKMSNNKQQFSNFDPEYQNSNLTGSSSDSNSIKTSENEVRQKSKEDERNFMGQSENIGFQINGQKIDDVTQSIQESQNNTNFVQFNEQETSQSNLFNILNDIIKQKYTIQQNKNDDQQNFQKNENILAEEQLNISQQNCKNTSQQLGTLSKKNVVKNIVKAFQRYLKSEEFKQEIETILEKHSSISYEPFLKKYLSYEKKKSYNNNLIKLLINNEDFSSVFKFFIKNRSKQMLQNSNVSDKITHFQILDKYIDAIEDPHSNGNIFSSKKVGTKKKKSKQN
UniProt Q22BP0: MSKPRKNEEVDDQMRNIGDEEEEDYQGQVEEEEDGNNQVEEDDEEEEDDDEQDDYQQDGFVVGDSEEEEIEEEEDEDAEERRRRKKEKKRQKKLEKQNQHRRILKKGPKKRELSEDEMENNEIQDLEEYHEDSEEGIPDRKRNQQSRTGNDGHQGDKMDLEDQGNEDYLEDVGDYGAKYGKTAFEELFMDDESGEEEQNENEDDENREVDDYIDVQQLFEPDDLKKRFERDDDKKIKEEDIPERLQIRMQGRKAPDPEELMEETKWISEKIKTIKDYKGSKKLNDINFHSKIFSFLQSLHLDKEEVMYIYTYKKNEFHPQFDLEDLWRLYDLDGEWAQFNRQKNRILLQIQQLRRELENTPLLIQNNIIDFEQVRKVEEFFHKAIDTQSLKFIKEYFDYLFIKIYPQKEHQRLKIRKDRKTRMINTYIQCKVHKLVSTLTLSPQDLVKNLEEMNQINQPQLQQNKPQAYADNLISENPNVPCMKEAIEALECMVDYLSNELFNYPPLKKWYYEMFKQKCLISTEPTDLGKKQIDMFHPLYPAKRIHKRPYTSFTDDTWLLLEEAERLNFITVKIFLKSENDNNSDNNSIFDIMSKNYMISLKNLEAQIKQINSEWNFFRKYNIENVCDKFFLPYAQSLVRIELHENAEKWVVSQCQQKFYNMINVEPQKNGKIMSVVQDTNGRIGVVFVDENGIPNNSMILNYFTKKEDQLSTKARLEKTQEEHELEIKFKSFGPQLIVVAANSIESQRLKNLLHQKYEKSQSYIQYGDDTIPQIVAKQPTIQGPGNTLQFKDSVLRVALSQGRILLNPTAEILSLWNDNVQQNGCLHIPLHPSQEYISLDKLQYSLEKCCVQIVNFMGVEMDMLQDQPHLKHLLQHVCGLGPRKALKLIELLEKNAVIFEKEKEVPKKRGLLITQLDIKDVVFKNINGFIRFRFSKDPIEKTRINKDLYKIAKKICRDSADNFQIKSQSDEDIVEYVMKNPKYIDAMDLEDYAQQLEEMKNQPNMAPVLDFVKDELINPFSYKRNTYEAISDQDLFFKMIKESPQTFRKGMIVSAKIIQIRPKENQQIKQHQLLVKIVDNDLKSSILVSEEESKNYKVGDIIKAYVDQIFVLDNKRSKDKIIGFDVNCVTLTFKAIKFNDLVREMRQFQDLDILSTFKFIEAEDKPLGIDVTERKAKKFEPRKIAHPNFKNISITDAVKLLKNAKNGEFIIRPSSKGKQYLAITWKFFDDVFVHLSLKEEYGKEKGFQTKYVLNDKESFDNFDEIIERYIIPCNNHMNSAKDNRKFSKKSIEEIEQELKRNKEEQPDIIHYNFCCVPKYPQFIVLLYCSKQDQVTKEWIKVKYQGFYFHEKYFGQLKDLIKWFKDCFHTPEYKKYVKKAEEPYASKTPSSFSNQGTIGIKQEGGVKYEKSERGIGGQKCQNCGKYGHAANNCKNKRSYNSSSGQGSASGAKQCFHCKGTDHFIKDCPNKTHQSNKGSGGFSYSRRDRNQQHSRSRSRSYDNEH
UniProt Q22RW2: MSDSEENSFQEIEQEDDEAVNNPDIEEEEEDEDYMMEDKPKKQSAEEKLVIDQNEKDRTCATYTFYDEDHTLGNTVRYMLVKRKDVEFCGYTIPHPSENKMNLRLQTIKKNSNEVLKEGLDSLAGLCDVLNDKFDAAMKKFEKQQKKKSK
UniProt Q22A33: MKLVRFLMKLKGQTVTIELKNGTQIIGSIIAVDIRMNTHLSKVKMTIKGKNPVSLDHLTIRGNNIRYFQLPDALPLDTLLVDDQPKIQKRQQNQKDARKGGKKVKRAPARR
UniProt I7M9A9: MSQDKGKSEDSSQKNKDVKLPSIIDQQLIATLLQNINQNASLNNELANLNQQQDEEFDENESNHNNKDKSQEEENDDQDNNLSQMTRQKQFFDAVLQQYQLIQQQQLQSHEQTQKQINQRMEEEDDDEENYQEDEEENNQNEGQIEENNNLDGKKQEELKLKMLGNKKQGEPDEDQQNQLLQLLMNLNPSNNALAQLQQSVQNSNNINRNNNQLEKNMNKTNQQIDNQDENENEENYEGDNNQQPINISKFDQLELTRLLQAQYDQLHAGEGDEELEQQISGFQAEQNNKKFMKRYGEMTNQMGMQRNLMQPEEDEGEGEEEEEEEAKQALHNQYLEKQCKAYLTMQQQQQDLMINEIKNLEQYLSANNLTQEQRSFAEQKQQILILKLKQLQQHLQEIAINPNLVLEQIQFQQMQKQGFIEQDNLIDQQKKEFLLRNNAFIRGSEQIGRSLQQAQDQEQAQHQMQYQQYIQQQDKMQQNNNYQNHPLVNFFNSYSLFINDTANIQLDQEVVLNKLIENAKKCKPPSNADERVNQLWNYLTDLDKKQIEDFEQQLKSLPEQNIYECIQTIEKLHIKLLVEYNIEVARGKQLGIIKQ

Row | Substance | binding [1] | binding [2] | binding [6] | binding [7] | also measured
1 | RebL1 (retinoblastoma binding protein 4/7-like 1), TTHERM_00688660 (from UniProt I7MMT8) | binds | binds | – | – | binding [3]: binds
2 | transcription factor TFIID (TTHERM_00160910) (from UniProt Q22W41) | binds | – | – | – | –
3 | Hat1 (human) (from UniProt O14929 1-419) | – | – | – | – | binding [4]: no binding; binding [5]: binds
4 | TFIID subunit 5 (TTHERM_00227160) (from UniProt Q23BW6) | binds | – | – | – | –
5 | MybL1, putative MYB-like TF (TTHERM_00842380) (from UniProt I7MAZ7) | binds | binds | binds | binds | –
6 | TTHERM_00219420, similar to the human p60 (S. cerevisiae Cac2) subunit of the CAF1 complex (from UniProt I7MFN1) | – | – | binds | binds | –
7 | Forc1, Friend of RebL1 in conjugation (TTHERM_00841280) (from UniProt I7M4G6) | – | – | binds | – | –
8 | Lin9^Tt (TTHERM_00591560) (from UniProt I7MKQ3) | binds | binds | binds | binds | –
9 | Anqa1 (Lin54-like protein, TTHERM_00766460) (from UniProt I7MML9) | – | – | binds | binds | binding [3]: binds
10 | transcriptional regulatory protein Spt6 (TTHERM_01093550) (from UniProt Q22BP0) | binds | – | – | – | –
11 | RNA polymerase subunit Rpc19 (TTHERM_00011760) (from UniProt Q22RW2) | binds | – | – | – | –
12 | small nuclear ribonucleoprotein Sm (TTHERM_01289080) (from UniProt Q22A33) | binds | – | – | – | –
13 | Jinn2 (TTHERM_00147500) (from UniProt I7M9A9) | binds | binds | binds | binds | binding [3]: binds
14 | Jinn1 (TTHERM_00227070) (from UniProt Q23BX5) | binds | binds | binds | binds | binding [3]: binds
